Laboratory results taken from patent publication US20140228423A1, “BIOMARKERS AND THERAPY FOR CANCER” (BAYLOR COLLEGE OF MEDICINE, priority 2011, published 2014).
Some results were stated once for a whole list of compounds, not compound by compound. Some ranges recur; such a range may be that of the whole group of compounds.

System: OVCAR8 cells
Experiment: High-throughput screen of Prestwick Chemical Library with or without YM155
Settings: compounds by themselves, low micromolar range

Row | Structure (SMILES) | OVCAR8 cell survival
1 | C[C@H]1O[C@@H](O[C@H]2[C@@H](O)C[C@H](O[C@H]3[C@@H](O)C[C@H](O[C@H]4CC[C@@]5(C)[C@H](CC[C@@H]6[C@@H]5C[C@@H](O)[C@]5(C)[C@@H](C7=CC(=O)OC7)CC[C@]65O)C4)O[C@@H]3C)O[C@@H]2C)C[C@H](O)[C@@H]1O [Digoxin] | 2-20%
2 | COc1cc2c(c(OC)c1OC)-c1ccc(OC)c(=O)cc1[C@@H](NC(C)=O)CC2 [colchicine] | 2-20%
